Data on two molecules can be found in PMC8490526.

Results are given in words; binding and its absence hold for the method and conditions named. Binding seen in cells or lysates may run through a third protein. Some entries that bind do so weakly or less than the wild type. For some assays here: Where a sequence is shown, tags or fusion partners need not be part of it.

Assay [1] has as its target T1, TANK-binding kinase 1 (TBK1), endogenous in BV2 cells (mouse (endogenous in BV2)) (UniProt Q9WUN2).
T1 sequence: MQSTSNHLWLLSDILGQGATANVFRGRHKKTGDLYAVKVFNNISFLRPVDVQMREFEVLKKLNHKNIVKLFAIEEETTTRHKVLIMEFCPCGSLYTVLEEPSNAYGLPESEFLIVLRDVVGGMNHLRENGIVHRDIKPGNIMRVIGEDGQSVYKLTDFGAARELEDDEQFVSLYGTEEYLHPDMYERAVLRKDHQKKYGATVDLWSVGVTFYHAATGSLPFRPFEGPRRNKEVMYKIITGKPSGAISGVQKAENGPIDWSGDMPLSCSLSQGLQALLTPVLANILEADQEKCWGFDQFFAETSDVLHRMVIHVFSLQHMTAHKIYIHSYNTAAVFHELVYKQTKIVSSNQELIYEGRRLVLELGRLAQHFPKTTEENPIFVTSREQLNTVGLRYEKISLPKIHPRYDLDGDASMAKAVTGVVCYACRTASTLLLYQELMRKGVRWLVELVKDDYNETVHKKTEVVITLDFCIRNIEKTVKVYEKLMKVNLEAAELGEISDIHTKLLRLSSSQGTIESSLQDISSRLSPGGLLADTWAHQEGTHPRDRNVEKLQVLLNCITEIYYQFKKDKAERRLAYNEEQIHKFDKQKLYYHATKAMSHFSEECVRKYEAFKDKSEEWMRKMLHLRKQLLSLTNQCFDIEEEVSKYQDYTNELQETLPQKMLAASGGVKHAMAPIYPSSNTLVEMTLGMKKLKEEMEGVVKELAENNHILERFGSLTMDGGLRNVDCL
Kind of assay: co-IP; endogenous proteins in BV2 cells infected with HSV-1 (MOI 1), late phase of infection (24 h); also after transfection of LNA-Ctrl or LNA-466 (knock-down of linc-AhRA reduced the interaction); IP lysis buffer, overnight at 4 °C, immunoblot.

Assay [2] deals with T2, HA-TBK1 (mouse (cDNA of BV2 cells)) (UniProt Q9WUN2).
T2 sequence: T1 sequence
Kind of assay: co-IP; HEK 293T cells co-transfected with FLAG-TRIM27 and HA-TBK1, with or without linc-AhRA or its 117nt fragment, for 42 h, then MG-132 (10 μM) for another 6 h; immunoblot.

B1: tripartite motif-containing 27 (TRIM27), endogenous in BV2 cells (protein, UniProt Q62158 1-513)
chain: MASGSVAECLQQETTCPVCLQYFVEPMMLDCGHNICCACLARCWGAAETNVSCPQCRETFPQRHMRPNRHLANVTQLVKQLRTERPSGPGGEMGVCEKHREPLKLYCEQDQMPICVVCDRSREHRGHSVLPLEEAVEGFKEQIQNRLDHLRRVKDLKKRRRAQGEQARAELLSLTQMEREKIVWEFEQLYHSLKEHEYRLLARLEELDLAIYNSINGAITQFSCNISHLSGLIAQLEEKQQQPTRELLQDIGDTLSRAERIRIPEPWITPPDLQEKIHIFAQKCLFLTESLKQFTEKMQSDMEKIQELREAQLYSVDVTLDPDTAYPSLILSDNLRQVRYSYLQQDLPDNPERFNLFPCVLGSPCFIAGRHYWEVEVGDKAKWTIGVCEDSVCRKGGVTSAPQNGFWAVSLWYGKEYWALTSPMTALPLRTPLQRVGIFLDYDAGEVSFYNVTERCHTFTFSHATFCGPVRPYFSLSYSGGKSAAPLIICPMSGIDGFSGHVGNHGHSMETSP
On to B1, for which the binding result in assay [1] is listed as “binds”.

B2: FLAG-TRIM27 (protein, UniProt Q62158 1-513)
chain: B1 chain
For the molecule B2, the binding entry in assay [2] is on record as “binds”.
